# Small-molecule microarray binding calls

From ROBIN, a set of small-molecule microarray screens (doi:10.1002/anie.202211358).

Oligonucleotides screened, 5′ to 3′:
SAM-II: SAM-II riboswitch RNA pseudoknot, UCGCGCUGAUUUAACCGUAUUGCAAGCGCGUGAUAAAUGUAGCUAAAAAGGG. About 21,000 compounds screened, about 200 hits.
TPP: TPP riboswitch RNA three-way junction, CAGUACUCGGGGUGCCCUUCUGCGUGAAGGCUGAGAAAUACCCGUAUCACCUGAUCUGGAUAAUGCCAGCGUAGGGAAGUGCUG. About 24,000 compounds screened, about 160 hits.
PreQ1: PreQ1 riboswitch RNA pseudoknot, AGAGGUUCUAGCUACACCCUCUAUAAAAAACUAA. From B. subtilis. About 24,000 compounds screened, about 170 hits.

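Each compound is printed as two spots on a slide made to bind it covalently, so it has no test concentration; the read-out is fluorescence of the bound, labelled oligonucleotide. For the PreQ1, TPP and SAM-II riboswitches the laboratory earlier reported (doi:10.1038/s41467-019-09493-3) 1 µM RNA, 2 h, and a rule that included a mean Z-score above 3 (spot signal-to-noise against the whole library), a score well above that on a control array, and duplicate spots agreeing (coefficient of variation under 100). The data file gives only the calls; its cut-offs may differ, and compounds hitting several targets are kept. These are primary screening calls, not affinities; a compound without a hit may have attached poorly or may still bind in solution.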
“hit” means called a hit, “no hit” means screened and not called a hit.
Compounds were drawn at random from those tested, without regard to their results.
A dash means that no call is listed here.

SMILES	SAM-II	TPP	PreQ1
CCCCOC(=O)c1ccc(Nc2nc3ccccc3n3cnnc23)cc1	no hit	no hit	no hit
C[C@@H]1C[C@@H]([C@H](O)CC2CC(=O)NC(=O)C2)C(=O)[C@@H](C)C1	no hit	no hit	no hit
Nc1ccc(S(=O)(=O)Nc2ccccn2)cc1	no hit	no hit	no hit
CCOc1ccccc1Nc1cc(C)nc2c(C)cccc12	no hit	no hit	no hit
CCC(=O)N1c2ccccc2C(Nc2ccccc2)CC1C (stereo not drawn)	no hit	no hit	no hit
Cc1nc2sc3c(NC4CCCCC4)ncnc3c2c2c1COC(C)(C)C2	no hit	no hit	no hit
COc1ccccc1C1C(C#N)=C(N)Oc2cc3c(cc21)OCO3 (stereo not drawn)	no hit	no hit	no hit
CCc1ccc(CNCc2ccc3c(c2)OCO3)cc1	no hit	no hit	no hit
Cc1nc(Nc2ccc(F)cc2)nc2c1ncn2-c1ccc(F)cc1	no hit	no hit	no hit
O=c1cc(CN2CCOCC(CO)C2)nc2ccc(Cl)cn12 (stereo not drawn)	no hit	no hit	no hit
CCc1ccccc1NC(=O)Cn1nnc(C(=O)NCCc2ccccc2)c1N	no hit	no hit	no hit
COC(=O)C1Cc2cc(OC)c(OC)cc2CN1.Cl (stereo not drawn)	no hit	no hit	no hit
Clc1cccc(-c2ccc(CNCCCn3ccnc3)o2)c1	-	no hit	no hit
CSCCC(O)C(=O)N1CCn2c(C(N)=O)cnc2C1 (stereo not drawn)	no hit	no hit	no hit
N[C@@H](Cc1c[nH]cn1)C(=O)N1CCCC(c2ccccc2)(c2ccccc2)C1	no hit	no hit	no hit
COCC(NC1CCC2(CCNCC2)CC1)c1ccnn1C (stereo not drawn)	no hit	no hit	no hit
O=C1CC(Nc2ccccc2)C(=O)N1c1ccccc1Cl (stereo not drawn)	no hit	no hit	no hit
CS(=O)(=O)c1cccc(C(=O)N2CC3(CCNCC3)CC2C(=O)O)c1 (stereo not drawn)	no hit	no hit	no hit
Cc1cnc(N)c2c(=O)oc3ccccc3c12	no hit	no hit	no hit
Cn1c(=O)c2c(c3ccccc31)OC(N)=C(C#N)C21C(=O)N(Cc2ccc(F)cc2)c2ccccc21 (stereo not drawn)	no hit	no hit	no hit
OCCC[C@@H]1CN(Cc2ccccc2-c2ccccc2)CC[C@@H]1N1CCOCC1	no hit	no hit	no hit
Nc1nc(COc2ccccc2)nc2sc3c(c12)CCCC3	-	no hit	no hit
c1ccc2c(c1)CCC[C@@H]2n1ccnc1-c1cc2n(n1)CCCNC2	no hit	no hit	no hit
COc1ccc(C(=O)n2nc(N)c3cc4ccc(C)cc4nc32)cc1OC	no hit	no hit	no hit
CN(Cc1cc(-c2ccccc2)on1)C(=O)C1CC2(CCNCC2)CN1 (stereo not drawn)	no hit	no hit	no hit
Cl.c1ccc(C(CCNCC2(c3ccc4c(c3)OCCO4)CCOCC2)c2ccccc2)cc1	no hit	no hit	no hit
CCCNC(=O)c1ccccc1C(=O)NC1(C(=O)NCCC)CCCC1	no hit	no hit	no hit
CN(Cc1nc(-c2ccccc2)no1)c1nccc(N2CCC(O)C2)n1 (stereo not drawn)	no hit	no hit	no hit
CCn1c(N)nc2cc(C(=O)N3CCc4ccc(F)cc4C3)cnc21	no hit	no hit	no hit
Cc1ccc(-c2c(Nc3ccc(C)c(C)c3)c(=O)c2=O)cc1	-	no hit	no hit
CCN1CCC(Nc2ccnc3cc(Cl)ccc23)CC1	no hit	no hit	no hit
COC1(c2ccccc2)CCN(C(=O)c2cccc(C3CCCNC3)c2)CC1 (stereo not drawn)	no hit	no hit	no hit
Cc1ccnn1CC(=O)N1C[C@@H](CN2CCOCC2)[C@@H](CO)C1	no hit	no hit	no hit
Cc1ccn2c(Nc3ccc(F)cc3)c(-c3ccccn3)nc2c1	no hit	no hit	no hit
CNc1nc(N2CC[C@@H](NC(=O)c3cnccn3)[C@H](O)C2)nc2c1CCC2	no hit	no hit	no hit
CC(C)n1cc(C(=O)O)c(=O)c(C(=O)N2C[C@H](C3CC3)[C@@H](N)C2)c1	no hit	no hit	no hit
CCSc1nc(CC(=O)N[C@@H]2CC[C@@H](N)C2)cs1	no hit	no hit	no hit
Cc1ncc2c(c1CNC(=O)c1cc3c([nH]c1=O)CCCC3)CCNC2	no hit	no hit	no hit
O=C(NCCO)c1cnc2sccn2c1=O	no hit	no hit	no hit
Cc1ccc(CN(CCO)C(=O)Nc2ccnn2CC2CC=CCC2)s1 (stereo not drawn)	no hit	no hit	no hit
Cc1cc(N2CCN(S(=O)(=O)c3ccc(C)c(C)c3)CC2)nc(NC2CCCCC2)n1	-	no hit	no hit
COc1ccc(Cl)cc1Nc1nc(-c2ccncc2)cs1	no hit	no hit	no hit
O=C(CSc1nc2ccccc2c(=O)n1-c1ccccc1)N1CCN(CCO)CC1	no hit	no hit	no hit
O=C(NCCCc1ccc(Cl)cc1)[C@H]1CNC[C@H](C(=O)N2CCOCC2)C1	no hit	no hit	no hit
CC(C)[C@H]1C(=O)N[C@H](CO)Cc2c[nH]c3cccc(c23)N1C	no hit	no hit	no hit
Cc1ccccc1CN1CCC(N2CCN(CCO)CC2)CC1	no hit	no hit	no hit
CCC(CO)(C(=O)OC1CC2CCC(C1)N2C)c1ccccc1 (stereo not drawn)	no hit	no hit	no hit
CSc1nnc([C@@H](N)Cc2ccccc2)o1	no hit	no hit	no hit
CCC(C(=O)[O-])C1CCC(C)C(C(C)C(O)C(C)C(=O)C(CC)C2OC3(C=CC(O)[C@@]4(CC[C@](C)(C5CC[C@@](O)(CC)C(C)O5)O4)O3)C(C)CC2C)O1 (stereo partly drawn)	no hit	no hit	no hit
COc1ccccc1CNCc1ccc(OC)c(OC)c1	no hit	no hit	no hit
COc1cccc(Nc2cc(C)nc3nc(-c4cccnc4)nn23)c1	-	no hit	no hit
CC(=O)NCCCOc1ccc([N+](=O)[O-])cc1Cl	no hit	no hit	no hit
CCC[C@H](N)C(=O)N1CCc2cc(S(=O)(=O)NCc3cc(C)on3)ccc2C1	no hit	no hit	no hit
C[n+]1cccc(C(=O)NCCO)c1.[I-]	no hit	no hit	no hit

4 of the entries, repeated:

| SMILES | SAM-II | TPP | PreQ1 |
|---|---|---|---|
| `CC(=O)NCCCOc1ccc([N+](=O)[O-])cc1Cl` | no hit | no hit | no hit |
| `COC(=O)C1Cc2cc(OC)c(OC)cc2CN1.Cl` (stereo not drawn) | no hit | no hit | no hit |
| `Cc1ccc(CN(CCO)C(=O)Nc2ccnn2CC2CC=CCC2)s1` (stereo not drawn) | no hit | no hit | no hit |
| `CCn1c(N)nc2cc(C(=O)N3CCc4ccc(F)cc4C3)cnc21` | no hit | no hit | no hit |